Record: PubChem BioAssay AID1159584 (Peter MacCallum Cancer Centre, 2016)

Aim: 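Knock-downs that harm CDH1-null cells more than parental MCF10A cells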 (primary screen)
System: human MCF10A breast epithelial cells, parental and CDH1-null
Reagent: siRNA against human genes
Measured: 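Cell viability by CellTiter-Glo ATP luminescence, each line scaled to the mean of mock wells across plates, then CDH1-null over parental ratio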
Direction: CDH1-null / parental viability ratio: higher = CDH1-null cells survive relatively better than parental; CDH1-null viability vs mock: higher = more viable CDH1-null cells
This is a random part of about 18,000 reagents tested. The numbers tell different reagents against one gene apart. Not all columns of the deposit are shown. Reagent sequences are not shown. Not given: the amount of reagent, the time to read-out.

no.	target gene	reagent	CDH1-null / parental viability ratio	CDH1-null viability vs mock (fraction of mock)
1	PAK6-AS1 (GeneID 644809)	1	0.79	0.3
2	TK2 (GeneID 7084)	1	1.08	0.98
3	MREG (GeneID 55686)	1	0.94	1.27
4	LCN10 (GeneID 414332)	1	1.27	0.98
5	GK5 (GeneID 256356)	1	0.96	0.71
6	SFXN5 (GeneID 94097)	1	0.88	0.64
7	TSNARE1 (GeneID 203062)	1	0.97	0.92
8	ZIC4 (GeneID 84107)	1	0.91	0.77
9	RILPL1 (GeneID 353116)	1	0.68	0.73
10	CACNA2D3 (GeneID 55799)	1	1.1	0.88
11	ZBTB32 (GeneID 27033)	1	0.9	0.82
12	IDNK (GeneID 414328)	1	0.86	0.76
13	MINK1 (GeneID 50488)	1	0.78	0.58
14	ZNF222 (GeneID 7673)	1	0.96	0.86
15	SLC22A2 (GeneID 6582)	1	0.79	0.68
16	UBE2A (GeneID 7319)	1	1.19	1.02
17	TMEM14B (GeneID 81853)	1	0.8	0.33
18	FAM180A (GeneID 389558)	1	1.1	0.77
19	ARHGEF18 (GeneID 23370)	1	1.28	0.64
20	CDCA5 (GeneID 113130)	1	1.13	0.34
21	OR52W1 (GeneID 120787)	1	0.94	0.46
22	NR0B1 (GeneID 190)	1	1.17	1.05
23	ABCA8 (GeneID 10351)	1	1.43	0.6
24	TELO2 (GeneID 9894)	1	0.76	0.53
25	UXS1 (GeneID 80146)	1	1.09	1.11
26	ATAD2 (GeneID 29028)	1	0.99	0.97
27	EVA1C (GeneID 59271)	1	1.13	1.02
28	S100A12 (GeneID 6283)	1	1.27	0.62
29	HES6 (GeneID 55502)	1	1.42	0.74
30	ZPBP2 (GeneID 124626)	1	1	0.78
31	RAP1GAP (GeneID 5909)	1	0.99	0.95
32	C2orf66 (GeneID 401027)	1	1.25	0.7
33	EDIL3 (GeneID 10085)	1	1.27	0.99
34	ESD (GeneID 2098)	1	1.01	1.08
35	PPIP5K1 (GeneID 9677)	1	1.4	0.84
36	ARFGAP2 (GeneID 84364)	1	1.06	1.1
37	FCHSD2 (GeneID 9873)	1	0.81	0.71
38	NMS (GeneID 129521)	1	0.9	0.54
39	EAPP (GeneID 55837)	1	0.92	0.9
40	TMEM163 (GeneID 81615)	1	1	0.62
41	APOD (GeneID 347)	1	1.03	1.14
42	BMP8B (GeneID 656)	1	1.14	1

The list goes on; the last 10 above are carried over.
no.	target gene	reagent	CDH1-null / parental viability ratio	CDH1-null viability vs mock (fraction of mock)
33	EDIL3 (GeneID 10085)	1	1.27	0.99
34	ESD (GeneID 2098)	1	1.01	1.08
35	PPIP5K1 (GeneID 9677)	1	1.4	0.84
36	ARFGAP2 (GeneID 84364)	1	1.06	1.1
37	FCHSD2 (GeneID 9873)	1	0.81	0.71
38	NMS (GeneID 129521)	1	0.9	0.54
39	EAPP (GeneID 55837)	1	0.92	0.9
40	TMEM163 (GeneID 81615)	1	1	0.62
41	APOD (GeneID 347)	1	1.03	1.14
42	BMP8B (GeneID 656)	1	1.14	1
43	ST6GALNAC2 (GeneID 10610)	1	1.06	0.82
44	SOD2 (GeneID 6648)	1	1.11	0.82
45	TTC17 (GeneID 55761)	1	0.93	0.96
46	CCDC124 (GeneID 115098)	1	0.69	0.68
47	BET1L (GeneID 51272)	1	1.83	0.77
48	AGRN (GeneID 375790)	1	1.47	0.84
49	HEBP1 (GeneID 50865)	1	1.21	1.17
50	XPO4 (GeneID 64328)	1	1.32	0.5
51	SEMA7A (GeneID 8482)	1	1	0.88
52	CLDN16 (GeneID 10686)	1	1.03	0.99
53	RUFY1 (GeneID 80230)	1	0.98	0.98
54	FKBP2 (GeneID 2286)	1	1.08	1.1
55	INPP5D (GeneID 3635)	1	1.19	0.88
56	PAWR (GeneID 5074)	1	0.99	0.85
57	KICS2 (GeneID 144577)	1	0.72	0.67
58	AVIL (GeneID 10677)	1	0.84	0.74
59	SLC25A35 (GeneID 399512)	1	1.12	1.1
60	ARHGAP10 (GeneID 79658)	1	1.4	1.29
61	LRATD2 (GeneID 157638)	1	0.74	0.67
62	LTBP1 (GeneID 4052)	1	0.94	0.62
63	PRMT2 (GeneID 3275)	1	0.75	0.52
64	SCP2D1 (GeneID 140856)	1	1.2	0.78
65	DHX15 (GeneID 1665)	1	0.94	0.58
66	MGLL (GeneID 11343)	1	1.16	1.04
67	SLIRP (GeneID 81892)	1	0.86	0.74
68	KCND1 (GeneID 3750)	1	1.02	0.86
69	PKP2 (GeneID 5318)	1	1	0.38
70	MANBA (GeneID 4126)	1	1.04	0.98
71	DRC12 (GeneID 283152)	1	1.05	0.86
72	ICAM1 (GeneID 3383)	1	0.78	0.52
73	NOL4L (GeneID 140688)	1	1.31	0.94
74	FZD7 (GeneID 8324)	1	0.78	0.66
75	ETFBKMT (GeneID 254013)	1	0.92	0.66
76	AGBL4 (GeneID 84871)	1	0.99	0.89
77	THSD7B (GeneID 80731)	1	0.74	0.7
78	S1PR3 (GeneID 1903)	1	1.45	0.96
79	S1PR3 (GeneID 1903)	2	0.84	0.92
80	EMP3 (GeneID 2014)	1	1.2	0.72
81	ZNF366 (GeneID 167465)	1	1.53	0.52
82	ALOX5AP (GeneID 241)	1	0.88	1.04
83	CIB3 (GeneID 117286)	1	1.3	0.92
84	TTLL2 (GeneID 83887)	1	0.92	0.78
85	TRIM8 (GeneID 81603)	1	1.01	0.99
86	FRMD1 (GeneID 79981)	1	1.43	0.76
87	RAG2 (GeneID 5897)	1	0.98	0.78
